Assay results as given in the supplement of paper PMC2577665.

These sequences were tested on ERE-luciferase reporter with exogenous ERalpha in HeLa cells (assay: relative ERE luciferase activity (Firefly/Renilla) upon cDNA overexpression, relative to empty vector (fold of empty vector); higher = stronger ERalpha transactivation (less repression)). Settings: 17beta-estradiol: 10 nM; 12 h.

Sequence | relative ERE luciferase activity
MEKEKGNDDGIPDQENSLDFSEHFNQLELLETHGHLIPTGTQSLWVGNSDEDEEQDDKNEEWYRLQEKKMEKDPSRLLLWAAEKNRLTTVRRLLSEKATHVNTRDEDEYTPLHRAAYSGHLDIVQELIAQGADVHAVTVDGWTPLHSACKWNNTRVASFLLQHDADINAQTKGLLTPLHLAAGNRDSKDTLELLLMNRYVKPGLKNNLEETAFDIARRTSIYHYLFEIVEGCTNSSPQS [ANKRD49] | 1.02
MEKLYSENEGMASNQGKMENEEQPQDERKPEVTCTLEDKKLENEGKTENKGKTGDEEMLKDKGKPESEGEAKEGKSEREGESEMEGGSEREGKPEIEGKPESEGEPGSETRAAGKRPAEDDVPRKAKRKTNKGLAHYLKEYKEAIHDMNFSNEDMIREFDNMAKVQDEKRKSKQKLGAFLWMQRNLQDPFYPRGPREFRGGCRAPRRDIEDIPYV [TCEAL4] | 1.16
MEKTELIQKAKLAEQAERYDDMATCMKAVTEQGAELSNEERNLLSVAYKNVVGGRRSAWRVISSIEQKTDTSDKKLQLIKDYREKVESELRSICTTVLELLDKYLIANATNPESKVFYLKMKGDYFRYLAEVACGDDRKQTIDNSQGAYQEAFDISKKEMQPTHPIRLGLALNFSVFYYEILNNPELACTLAKTAFDEAIAELDTLNEDSYKDSTLIMQLLRDNLTLWTSDSAGEECDAAEGAEN [YWHAQ] | 1.03
MELKQSLSTHLEAEKPLRRYGAVEETAWKTERLGRNQLDIISMAETTMMPEEIELEMAKIQRLREVLVRRESELRFMMDDIQLCKDIMDLKQELQNLVAIPEKEKTKLQKQREDELIQKIHKLVQKRDFLVDDAEVERLREQEEDKEMADFLRIKLKPLDKVTKSPASSRAEKKAEPPPSKPTVAKTGLALIKDCCGATQCNIM [C16orf45] | 1.05
MESTLGAGIVIAEALQNQLAWLENVWLWITFLGDPKILFLFYFPAAYYASRRVGIAVLWISLITEWLNLIFKWFLFGDRPFWWVHESGYYSQAPAQVHQFPSSCETGPGSPSGHCMITGAALWPIMTALSSQVATRARSRWVRVMPSLAYCTFLLAVGLSRIFILAHFPHQVLAGLITGAVLGWLMTPRVPMERELSFYGLTALALMLGTSLIYWTLFTLGLDLSWSISLAFKWCERPEWIHVDSRPFASLSRDSGAALGLGIALHSPCYAQVRRAQLGNGQKIACLVLAMGLLGPLDWLGHPPQISLFYIFNFLKYTLWPCLVLALVPWAVHMFSAQEAPPIHSS [G6PC3] | 1.32
METFDPTELPELLKLYYRRLFPYSQYYRWLNYGGVIKNYFQHREFSFTLKDDIYIRYQSFNNQSDLEKEMQKMNPYKIDIGAVYSHRPNQHNTVKLGAFQAQEKELVFDIDMTDYDDVRRCCSSADICPKCWTLMTMAIRIIDRALKEDFGFKHRLWVYSGRRGVHCWVCDESVRKLSSAVRSGIVEYLSLVKGGQDVKKKVHLSEKIHPFIRKSINIIKKYFEEYALVNQDILENKESWDKILALVPETIHDELQQSFQKSHNSLQRWEHLKKVASRYQNNIKNDKYGPWLEWEIMLQYCFPRLDINVSKGINHLLKSPFSVHPKTGRISVPIDLQKVDQFDPFTVPTISFICRELDAISTNEEEKEENEAESDVKHRTRDYKKTSLAPYVKVFEHFLENLDKSRKGELLKKSDLQKDF [PRIM1] | 1.01
METLSQDSLLECQICFNYYSPRRRPKLLDCKHTCCSVCLQQMRTSQKDVRCPWCRGVTKLPPGFSVSQLPDDPEVLAVIAIPHTSEHTPVFIKLPSNGCYMLPLPISKERALLPGDMGCRLLPGSQQKSVTVVTIPAEQQPLQGGAPQEAVEEEQDRRGVVKSSTWSGVCTVILVACVLVFLLGIVLHNMSCISKRFTVISCG [RNF152] | 1.11
MFGIQDTLGRGPTLKEKSLGAEMDSVRSWVRNVGVVDANVAAQSGVALSRAHFEKQPPSNLRKSNFFHFVLALYDRQGQPVEIERTAFVDFVENDKEQGNEKTNNGTHYKLQLLYSNGVRTEQDLYVRLIDSVTKQPIAYEGQNKNPEMCRVLLTHEVMCSRCCEKKSCGNRNETPSDPVIIDRFFLKFFLKCNQNCLKTAGNPRDMRRFQVVLSTTVNVDGHVLAVSDNMFVHNNSKHGRRARRLDPSEATPCIKAISPSEGWTTGGAMVIIIGDNFFDGLQVVFGTMLVWSELITPHAIRVQTPPRHIPGVVEVTLSYKSKQFCKGAPGRFIYTALNEPTIDYGFQRLQKVIPRHPGDPERLAKEMLLKRAADLVEALYGTPHNNQDIILKRAADIAEALYSVPRNPSQLPALSSSPAHSGMMGINSYGSQLGVSISESTQGNNQGYIRNTSSISPRGYSSSSTPQQSNYSTSSNSMNGYSNVPMANLGVPGSPGFLNGSPTGSPYGIMSSSPTVGSSSTSSILPFSSSVFPAVKQKSAFAPVIRPQGSPSPACSSGNGNGFRAMTGLVVPPM [EBF2] | 1.04
MFKVIQRSVGPASLSLLTFKVYAAPKKDSPPKNSVKVDELSLYSVPEGQSKYVEEARSQLEESISQLRHYCEPYTTWCQETYSQTKPKMQSLVQWGLDSYDYLQNAPPGFFPRLGVIGFAGLIGLLLARGSKIKKLVYPPGFMGLAASLYYPQQAIVFAQVSGERLYDWGLRGYIVIEDLWKENFQKPGNVKNSPGTK [APOO] | 1.1
MFVELNNLLNTTPDRAEQGKLTLLCDAKTDGSFLVHHFLSFYLKANCKVCFVALIQSFSHYSIVGQKLGVSLTMARERGQLVFLEGLKSAVDVVFQAQKEPHPLQFLREANAGNLKPLFEFVREALKPVDSGEARWTYPVLLVDDLSVLLSLGMGAVAVLDFIHYCRATVCWELKGNMVVLVHDSGDAEDEENDILLNGLSHQSHLILRAEGLATGFCRDVHGQLRILWRRPSQPAVHRDQSFTYQYKIQDKSVSFFAKGMSPAVL [TMEM103] | 1.27
MFWKLSLSLFLVAVLVKVAEARKNRPAGAIPSPYKDGSSNNSERWQHQIKEVLASSQEALVVTERKYLKSDWCKTQPLRQTVSEEGCRSRTILNRFCYGQCNSFYIPRHVKKEEESFQSCAFCKPQRVTSVLVELECPGLDPPFRLKKIQKVKQCRCMSVNLSDSDKQ [GREM2] | 1.95
MGDPNSRKKQALNRLRAQLRKKKESLADQFDFKMYIAFVFKEKKKKSALFEVSEVIPVMTNNYEENILKGVRDSSYSLESSLELLQKDVVQLHAPRYQSMRRDVIGCTQEMDFILWPRNDIEKIVCLLFSRWKESDEPFRPVQAKFEFHHGDYEKQFLHVLSRKDKTGIVVNNPNQSVFLFIDRQHLQTPKNKATIFKLCSICLYLPQEQLTHWAVGTIEDHLRPYMPE [C6orf62] | 1.07
MGDREQLLQRARLAEQAERYDDMASAMKAVTELNEPLSNEDRNLLSVAYKNVVGARRSSWRVISSIEQKTMADGNEKKLEKVKAYREKIEKELETVCNDVLSLLDKFLIKNCNDFQYESKVFYLKMKGDYYRYLAEVASGEKKNSVVEASEAAYKEAFEISKEQMQPTHPIRLGLALNFSVFYYEIQNAPEQACLLAKQAFDDAIAELDTLNEDSYKDSTLIMQLLRDNLTLWTSDQQDEEAGEGN [YWHAH] | 1.94
MGKRDNRVAYMNPIAMARWRGPTQSVGPTIQDYLNRPRPTWEEVKKQLENKKTGSKALAEFEEKMNENWKKELEKSREKLLSGNESSSKKRERKKKRKKKSCRSSSSSSSSDSSSSSSDSEDEEKKQGKRRKKKKNRSYKSSQSSTHESESESKESVKKKKKSKDETEKEKDVRSLSKKRKKSYPDDKPLSSESSSESDYEEDVQAKKKRRCEEREQAKEKVKKKKKKQHKKHSKKKKKKSGSSHKSR [FAM133A] | 1.72
MGKTFSQLGSWREDENKSILSSKPAIGSKAVNYSSTGSSKSFCSCVPCEGTADASFVTCPTCQGSGKIPQELEKQLVALIPYGDQRLKPKHTKLFVFLAVLICLVTSSFIVFFLFPRSVIVQPAGLNSSTVAFDEADIYLNITNILNISNGNYYPIMVTQLTLEVLHLSLVVGQVSNNLLLHIGPLASEQMFYAVATKIRDENTYKICTWLEIKVHHVLLHIQGTLTCSYLSHSEQLVFQSYEYVDCRGNASVPHQLTPHPP [TMEM106A] | 1.05
MGNLFGRKKQSRVTEQDKAILQLKQQRDKLRQYQKRIAQQLERERALARQLLRDGRKERAKLLLKKKRYQEQLLDRTENQISSLEAMVQSIEFTQIEMKVMEGLQFGNECLNKMHQVMSIEEVERILDETQEAVEYQRQIDELLAGSFTQEDEDAILEELSAITQEQIELPEVPSEPLPEKIPENVPVKARPRQAELVAAS [CHMP6] | 2.86
MGNRVCCGGSWSCPSTFQKKKKTGSQTRRTLKPQPQQLQQNLPKGHETTGHTYERVLQQQGSQERSPGLMSEDSNLHYADIQVCSRPHAREVKHVHLENATEYATLRFPQATPRYDSKNGTLV [C11orf52] | 0.818
MGNTLGLAPMGTLPRRSPRREEPLPNPGSFDELHRLCKDVFPAQMEGVKLVVNKVLSSHFQVAHTIHMSALGLPGYHLHAAYAGDWQLSPTEVFPTVVGDMDSSGSLNAQVLLLLAERLRAKAVFQTQQAKFLTWQFDGEYRGDDYTATLTLGNPDLIGESVIMVAHFLQSLTHRLVLGGELVYHRRPGEEGAILTLAGKYSAVHWVATLNVGSGGAHASYYHRANEQVQVGVEFEANTRLQDTTFSFGYHLTLPQANMVFRGLVDSNWCVGAVLEKKMPPLPVTLALGAFLNHWRNRFHCGFSITVG [TOMM40L] | 1.18
MGPTRKPNVCSRLSRRALGCFSRDAGVVQRTNLGILRALVCQESTKFKNVWTTHSRSPIAYERGRIYFDNYRRCVSSVASEPRKLYEMPKCSKSEKIEDALLWECPVGDILPNSSDYKSSLIALTAHNWLLRISATTGKILEKIYLAPYCKFRYLSWDTPQEVIAVKSAQNRGSAVARQAGIQQHVLLYLAVFRVLPFSLVGILEINKKIFGNVTDATLSHGILIVMYSSGLVRLYSFQTIAEQFMQQKLDLGCACRWGGTTGTVGEAPFGIPCNIKITDMPPLLFEVSSLENAFQIGGHPWHYIVTPNKKKQKGVFHICALKDNSLAKNGIQEMDCCSLESDWIYFHPDASGRIIHVGPNQVKVLKLTEIENNSSQHQISEDFVILANRENHKNENVLTVTASGRVVKKSFNLLDDDPEQETFKIVDYEDELDLLSVVAVTQIDAEGKAHLDFHCNEYGTLLKSIPLVESWDVTYSHEVYFDRDLVLHIEQKPNRVFSCYVYQMICDTGEEEETINRSC [C2orf37] | 1.14 ± 0.12
MGSACIKVTKYFLFLFNLIFFILGAVILGFGVWILADKSSFISVLQTSSSSLRMGAYVFIGVGAVTMLMGFLGCIGAVNEVRCLLGLYFAFLLLILIAQVTAGALFYFNMGKLKQEMGGIVTELIRDYNSSREDSLQDAWDYVQAQVKCCGWVSFYNWTDNAELMNRPEVTYPCSCEVKGEEDNSLSVRKGFCEAPGNRTQSGNHPEDWPVYQEGCMEKVQAWLQENLGIILGVGVGVAIIELLGMVLSICLCRHVHSEDYSKVPKY [CD82] | 1.02
MGWTMRLVTAALLLGLMMVVTGDEDENSPCAHEALLDEDTLFCQGLEVFYPELGNIGCKVVPDCNNYRQKITSWMEPIVKFPGAVDGATYILVMVDPDAPSRAEPRQRFWRHWLVTDIKGADLKKGKIQGQELSAYQAPSPPAHSGFHRYQFFVYLQEGKVISLLPKENKTRGSWKMDRFLNRFHLGEPEASTQFMTQNYQDSPTLQAPRERASEPKHKNQAEIAAC [PEBP4] | 0.961
MHPFQWCNGCFCGLGLVSTNKSCSMPPISFQDLPLNIYMVIFGTGIFVFMLSLIFCCYFISKLRNQAQSERYGYKEVVLKGDAKKLQLYGQTCAVCLEDFKGKDELGVLPCQHAFHRKCLVKWLEVRCVCPMCNKPIASPSEATQNIGILLDELV [RNF122] | 1.87

± gives the standard deviation of the averaged measurements. This is a noisy data set.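 Every well combined ERalpha-negative HeLa cells, transfected ERalpha, a two-estrogen-response-element reporter, and overexpression of a single poorly characterized human cDNA. Any gene lowering the signal to at most the BRCA1 positive control level, about 0.6 of empty vector, was called a repressor hit.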
